Results are given in words; binding and its absence hold for the method and conditions named. Some results given as binding are weak or reduced against the parent protein; the word gives no strength. Blank lines part the entries; values can stand above or below the substance they belong to.
Assays:
peptide TEAD (…) (human) = target: T1, peptide TEAD (…) (human); experiment: cellulose-bound dodecapeptide spot array probed with YAP-GST, ECL detection
T1 sequence (peptide): RLQLVEFSAFVEPPDAVD

By UniProt entry, the sequences of proteins in these tests, tags left out.
UniProt P46937: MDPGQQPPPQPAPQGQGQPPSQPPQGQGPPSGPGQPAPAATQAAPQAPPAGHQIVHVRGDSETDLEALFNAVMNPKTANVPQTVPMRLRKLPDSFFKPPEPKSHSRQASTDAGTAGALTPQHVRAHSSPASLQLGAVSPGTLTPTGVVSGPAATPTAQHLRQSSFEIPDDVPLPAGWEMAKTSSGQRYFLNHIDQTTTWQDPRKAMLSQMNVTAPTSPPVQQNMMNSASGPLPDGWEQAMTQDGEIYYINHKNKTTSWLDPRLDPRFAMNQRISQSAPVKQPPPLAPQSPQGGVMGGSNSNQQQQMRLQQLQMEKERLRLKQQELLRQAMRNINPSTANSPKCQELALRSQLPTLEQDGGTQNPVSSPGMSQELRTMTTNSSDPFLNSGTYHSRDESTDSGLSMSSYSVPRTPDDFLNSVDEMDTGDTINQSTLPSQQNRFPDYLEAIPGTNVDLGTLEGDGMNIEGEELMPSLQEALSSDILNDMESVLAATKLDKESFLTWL
UniProt Q9GZV5: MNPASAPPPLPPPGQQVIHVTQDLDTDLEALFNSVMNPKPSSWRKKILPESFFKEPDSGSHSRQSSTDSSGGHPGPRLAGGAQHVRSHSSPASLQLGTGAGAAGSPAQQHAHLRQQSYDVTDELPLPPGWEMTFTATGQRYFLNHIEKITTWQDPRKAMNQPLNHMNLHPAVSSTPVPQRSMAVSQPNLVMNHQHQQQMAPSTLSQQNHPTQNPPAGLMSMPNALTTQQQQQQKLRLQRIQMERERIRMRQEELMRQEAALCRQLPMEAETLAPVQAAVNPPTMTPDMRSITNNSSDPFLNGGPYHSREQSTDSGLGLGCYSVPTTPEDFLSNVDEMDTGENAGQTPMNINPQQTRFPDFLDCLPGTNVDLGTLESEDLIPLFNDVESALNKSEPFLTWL
UniProt Q15562: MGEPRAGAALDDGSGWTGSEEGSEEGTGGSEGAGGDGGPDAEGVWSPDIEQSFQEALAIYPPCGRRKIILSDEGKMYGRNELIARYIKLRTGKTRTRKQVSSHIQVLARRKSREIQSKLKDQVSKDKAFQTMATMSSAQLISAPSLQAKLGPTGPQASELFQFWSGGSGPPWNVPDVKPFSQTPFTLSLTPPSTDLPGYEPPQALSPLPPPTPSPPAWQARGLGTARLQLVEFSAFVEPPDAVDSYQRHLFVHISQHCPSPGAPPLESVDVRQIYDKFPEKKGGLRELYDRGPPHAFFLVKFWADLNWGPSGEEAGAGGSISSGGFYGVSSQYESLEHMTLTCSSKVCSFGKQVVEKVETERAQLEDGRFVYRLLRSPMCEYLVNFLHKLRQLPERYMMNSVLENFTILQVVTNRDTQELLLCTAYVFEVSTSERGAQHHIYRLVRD

peptide TAZ (…) (human) = experiment: cellulose-bound dodecapeptide spot array probed with TAZ-GST, ECL detection
peptide YAP (…) (human) = target: T2, peptide YAP (…) (human); experiment: cellulose-bound dodecapeptide spot array probed with TEAD-GST, ECL detection
T2 sequence (peptide): KTANVPQTVPMRLRKLPD

binding (peptide TEAD (…) (human)): binds
Substance: YAP-GST protein (from UniProt P46937 1-504)

binding (peptide TAZ (…) (human)): binds
Substance: TAZ-GST protein (from UniProt Q9GZV5 1-400)

binding (peptide YAP (…) (human)): binds
Substance: TEAD-GST protein (from UniProt Q15562 1-447)

Source: patent US20160264636A1, “PEPTIDE INHIBITORS OF TEAD/YAP-TAZ INTERACTION” (UNIVERSITE PIERRE ET MARIE CURIE (PARIS 6), priority 2013, published 2016)
